Experimental data: the supplement of paper PMC10849652
Some of the results follow.

The chains behind the UniProt entries cited, without tags or fusion partners. Where a name states a change or a piece, a line headed by the entry shows the natural chain unless it says otherwise.
UniProt Q15398: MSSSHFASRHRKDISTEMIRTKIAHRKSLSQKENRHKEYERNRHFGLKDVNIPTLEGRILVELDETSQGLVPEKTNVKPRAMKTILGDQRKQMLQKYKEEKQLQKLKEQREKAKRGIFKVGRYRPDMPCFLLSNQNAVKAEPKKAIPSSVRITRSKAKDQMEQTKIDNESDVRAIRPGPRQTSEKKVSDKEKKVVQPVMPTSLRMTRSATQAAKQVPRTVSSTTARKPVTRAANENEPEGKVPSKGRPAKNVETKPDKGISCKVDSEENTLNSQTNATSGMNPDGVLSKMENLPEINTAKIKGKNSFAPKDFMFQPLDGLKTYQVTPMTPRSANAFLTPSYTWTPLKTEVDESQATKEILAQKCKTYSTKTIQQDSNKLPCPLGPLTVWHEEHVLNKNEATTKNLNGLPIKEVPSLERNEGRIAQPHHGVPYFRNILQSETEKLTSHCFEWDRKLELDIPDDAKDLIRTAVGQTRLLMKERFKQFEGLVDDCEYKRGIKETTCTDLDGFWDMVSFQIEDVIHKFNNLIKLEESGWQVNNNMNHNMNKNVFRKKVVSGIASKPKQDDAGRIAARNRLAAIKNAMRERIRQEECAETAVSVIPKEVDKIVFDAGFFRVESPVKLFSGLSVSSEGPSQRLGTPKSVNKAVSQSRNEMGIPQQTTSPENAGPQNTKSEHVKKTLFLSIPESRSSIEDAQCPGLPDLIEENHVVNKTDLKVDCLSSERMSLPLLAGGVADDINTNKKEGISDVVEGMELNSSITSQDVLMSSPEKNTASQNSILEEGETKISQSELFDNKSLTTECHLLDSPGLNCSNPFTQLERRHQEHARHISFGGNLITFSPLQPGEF
UniProt Q96KC8: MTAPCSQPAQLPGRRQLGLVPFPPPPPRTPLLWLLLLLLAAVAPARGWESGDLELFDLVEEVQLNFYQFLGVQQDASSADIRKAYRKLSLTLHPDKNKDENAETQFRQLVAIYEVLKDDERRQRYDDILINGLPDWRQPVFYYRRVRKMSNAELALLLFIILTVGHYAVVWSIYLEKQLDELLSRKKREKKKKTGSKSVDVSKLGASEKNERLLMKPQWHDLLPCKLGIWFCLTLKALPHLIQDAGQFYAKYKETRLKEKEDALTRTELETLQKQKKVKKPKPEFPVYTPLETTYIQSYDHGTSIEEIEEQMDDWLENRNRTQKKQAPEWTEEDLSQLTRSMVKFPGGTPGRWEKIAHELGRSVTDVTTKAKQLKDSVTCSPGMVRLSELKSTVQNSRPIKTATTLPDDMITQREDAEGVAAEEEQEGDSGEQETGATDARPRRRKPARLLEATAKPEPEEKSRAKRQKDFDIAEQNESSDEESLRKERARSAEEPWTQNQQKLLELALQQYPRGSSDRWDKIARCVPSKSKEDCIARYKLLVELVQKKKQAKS
UniProt Q99766: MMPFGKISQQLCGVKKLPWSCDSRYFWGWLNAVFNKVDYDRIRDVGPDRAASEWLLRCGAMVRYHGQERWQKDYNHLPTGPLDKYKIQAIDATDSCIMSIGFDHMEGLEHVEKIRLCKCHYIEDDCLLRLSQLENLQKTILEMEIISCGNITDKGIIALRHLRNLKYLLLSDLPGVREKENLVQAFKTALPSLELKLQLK
UniProt P49184: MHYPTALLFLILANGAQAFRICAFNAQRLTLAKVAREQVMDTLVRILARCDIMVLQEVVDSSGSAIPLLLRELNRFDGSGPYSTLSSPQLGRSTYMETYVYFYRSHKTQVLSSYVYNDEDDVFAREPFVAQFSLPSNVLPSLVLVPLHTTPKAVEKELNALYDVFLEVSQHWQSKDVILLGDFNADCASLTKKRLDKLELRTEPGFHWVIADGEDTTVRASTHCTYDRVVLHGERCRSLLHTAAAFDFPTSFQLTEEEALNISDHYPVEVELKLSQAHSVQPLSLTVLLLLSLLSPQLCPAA
UniProt P50570: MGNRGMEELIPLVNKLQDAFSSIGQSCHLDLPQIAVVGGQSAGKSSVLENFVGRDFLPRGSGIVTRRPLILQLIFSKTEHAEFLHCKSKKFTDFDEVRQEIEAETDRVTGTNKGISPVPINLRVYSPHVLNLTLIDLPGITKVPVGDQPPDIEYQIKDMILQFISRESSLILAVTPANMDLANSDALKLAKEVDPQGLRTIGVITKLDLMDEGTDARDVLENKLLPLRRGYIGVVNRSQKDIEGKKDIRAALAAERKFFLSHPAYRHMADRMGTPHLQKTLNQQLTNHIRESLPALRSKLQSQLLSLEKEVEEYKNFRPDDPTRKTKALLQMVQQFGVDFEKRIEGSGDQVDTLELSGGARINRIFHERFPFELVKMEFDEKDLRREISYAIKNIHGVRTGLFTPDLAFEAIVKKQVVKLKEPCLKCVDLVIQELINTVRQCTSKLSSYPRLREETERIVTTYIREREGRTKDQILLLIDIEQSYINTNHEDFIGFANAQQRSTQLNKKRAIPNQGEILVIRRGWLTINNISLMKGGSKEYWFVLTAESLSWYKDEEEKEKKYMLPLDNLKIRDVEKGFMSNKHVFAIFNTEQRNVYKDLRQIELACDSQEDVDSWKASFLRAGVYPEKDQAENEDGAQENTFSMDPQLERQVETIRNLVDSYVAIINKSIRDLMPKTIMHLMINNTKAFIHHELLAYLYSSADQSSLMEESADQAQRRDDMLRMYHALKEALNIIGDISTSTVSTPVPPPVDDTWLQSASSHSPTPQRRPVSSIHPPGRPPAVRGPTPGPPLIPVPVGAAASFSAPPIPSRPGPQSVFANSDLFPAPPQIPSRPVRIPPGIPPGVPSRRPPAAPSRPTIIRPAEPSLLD
UniProt Q9UBS3: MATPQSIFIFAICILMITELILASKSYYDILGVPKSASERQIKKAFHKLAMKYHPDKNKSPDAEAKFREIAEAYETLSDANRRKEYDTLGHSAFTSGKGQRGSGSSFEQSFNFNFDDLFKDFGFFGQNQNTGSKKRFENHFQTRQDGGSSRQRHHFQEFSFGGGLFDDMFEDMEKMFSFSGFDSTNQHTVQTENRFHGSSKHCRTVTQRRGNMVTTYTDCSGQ
UniProt Q5SXM8: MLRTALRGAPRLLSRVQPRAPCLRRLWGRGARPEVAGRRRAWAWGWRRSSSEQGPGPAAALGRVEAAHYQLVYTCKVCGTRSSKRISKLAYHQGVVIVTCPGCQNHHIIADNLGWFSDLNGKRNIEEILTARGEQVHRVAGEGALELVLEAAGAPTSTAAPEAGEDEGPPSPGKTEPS
UniProt Q9H147: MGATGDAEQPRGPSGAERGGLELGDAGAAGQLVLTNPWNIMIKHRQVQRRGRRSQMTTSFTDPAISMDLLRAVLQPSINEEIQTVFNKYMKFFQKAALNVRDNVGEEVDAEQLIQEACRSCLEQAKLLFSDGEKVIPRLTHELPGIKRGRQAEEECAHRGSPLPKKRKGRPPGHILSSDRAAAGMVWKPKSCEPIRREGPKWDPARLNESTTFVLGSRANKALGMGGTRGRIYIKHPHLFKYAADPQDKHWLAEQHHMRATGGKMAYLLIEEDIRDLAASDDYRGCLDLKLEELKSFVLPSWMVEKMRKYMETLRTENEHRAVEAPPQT
UniProt Q8IXB1: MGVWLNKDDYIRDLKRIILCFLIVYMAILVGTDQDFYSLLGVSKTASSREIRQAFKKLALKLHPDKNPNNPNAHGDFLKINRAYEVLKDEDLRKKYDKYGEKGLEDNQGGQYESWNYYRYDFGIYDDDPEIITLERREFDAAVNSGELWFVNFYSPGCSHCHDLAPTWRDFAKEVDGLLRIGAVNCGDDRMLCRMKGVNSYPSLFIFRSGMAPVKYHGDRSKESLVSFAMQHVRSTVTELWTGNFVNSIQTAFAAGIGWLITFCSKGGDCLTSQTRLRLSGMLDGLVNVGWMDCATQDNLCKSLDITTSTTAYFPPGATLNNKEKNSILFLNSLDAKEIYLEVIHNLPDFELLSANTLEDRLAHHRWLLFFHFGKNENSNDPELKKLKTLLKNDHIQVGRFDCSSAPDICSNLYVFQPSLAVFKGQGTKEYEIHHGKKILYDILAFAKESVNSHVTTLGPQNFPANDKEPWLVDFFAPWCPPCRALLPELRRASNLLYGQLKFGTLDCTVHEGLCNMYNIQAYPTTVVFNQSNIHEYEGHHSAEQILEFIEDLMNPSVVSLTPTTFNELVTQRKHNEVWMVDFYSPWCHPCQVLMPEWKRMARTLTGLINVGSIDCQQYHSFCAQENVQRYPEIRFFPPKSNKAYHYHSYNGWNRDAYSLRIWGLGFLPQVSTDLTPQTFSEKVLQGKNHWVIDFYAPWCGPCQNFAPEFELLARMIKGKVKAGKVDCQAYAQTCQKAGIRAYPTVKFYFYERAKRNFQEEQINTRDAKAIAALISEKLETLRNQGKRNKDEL
UniProt Q9Y3R5: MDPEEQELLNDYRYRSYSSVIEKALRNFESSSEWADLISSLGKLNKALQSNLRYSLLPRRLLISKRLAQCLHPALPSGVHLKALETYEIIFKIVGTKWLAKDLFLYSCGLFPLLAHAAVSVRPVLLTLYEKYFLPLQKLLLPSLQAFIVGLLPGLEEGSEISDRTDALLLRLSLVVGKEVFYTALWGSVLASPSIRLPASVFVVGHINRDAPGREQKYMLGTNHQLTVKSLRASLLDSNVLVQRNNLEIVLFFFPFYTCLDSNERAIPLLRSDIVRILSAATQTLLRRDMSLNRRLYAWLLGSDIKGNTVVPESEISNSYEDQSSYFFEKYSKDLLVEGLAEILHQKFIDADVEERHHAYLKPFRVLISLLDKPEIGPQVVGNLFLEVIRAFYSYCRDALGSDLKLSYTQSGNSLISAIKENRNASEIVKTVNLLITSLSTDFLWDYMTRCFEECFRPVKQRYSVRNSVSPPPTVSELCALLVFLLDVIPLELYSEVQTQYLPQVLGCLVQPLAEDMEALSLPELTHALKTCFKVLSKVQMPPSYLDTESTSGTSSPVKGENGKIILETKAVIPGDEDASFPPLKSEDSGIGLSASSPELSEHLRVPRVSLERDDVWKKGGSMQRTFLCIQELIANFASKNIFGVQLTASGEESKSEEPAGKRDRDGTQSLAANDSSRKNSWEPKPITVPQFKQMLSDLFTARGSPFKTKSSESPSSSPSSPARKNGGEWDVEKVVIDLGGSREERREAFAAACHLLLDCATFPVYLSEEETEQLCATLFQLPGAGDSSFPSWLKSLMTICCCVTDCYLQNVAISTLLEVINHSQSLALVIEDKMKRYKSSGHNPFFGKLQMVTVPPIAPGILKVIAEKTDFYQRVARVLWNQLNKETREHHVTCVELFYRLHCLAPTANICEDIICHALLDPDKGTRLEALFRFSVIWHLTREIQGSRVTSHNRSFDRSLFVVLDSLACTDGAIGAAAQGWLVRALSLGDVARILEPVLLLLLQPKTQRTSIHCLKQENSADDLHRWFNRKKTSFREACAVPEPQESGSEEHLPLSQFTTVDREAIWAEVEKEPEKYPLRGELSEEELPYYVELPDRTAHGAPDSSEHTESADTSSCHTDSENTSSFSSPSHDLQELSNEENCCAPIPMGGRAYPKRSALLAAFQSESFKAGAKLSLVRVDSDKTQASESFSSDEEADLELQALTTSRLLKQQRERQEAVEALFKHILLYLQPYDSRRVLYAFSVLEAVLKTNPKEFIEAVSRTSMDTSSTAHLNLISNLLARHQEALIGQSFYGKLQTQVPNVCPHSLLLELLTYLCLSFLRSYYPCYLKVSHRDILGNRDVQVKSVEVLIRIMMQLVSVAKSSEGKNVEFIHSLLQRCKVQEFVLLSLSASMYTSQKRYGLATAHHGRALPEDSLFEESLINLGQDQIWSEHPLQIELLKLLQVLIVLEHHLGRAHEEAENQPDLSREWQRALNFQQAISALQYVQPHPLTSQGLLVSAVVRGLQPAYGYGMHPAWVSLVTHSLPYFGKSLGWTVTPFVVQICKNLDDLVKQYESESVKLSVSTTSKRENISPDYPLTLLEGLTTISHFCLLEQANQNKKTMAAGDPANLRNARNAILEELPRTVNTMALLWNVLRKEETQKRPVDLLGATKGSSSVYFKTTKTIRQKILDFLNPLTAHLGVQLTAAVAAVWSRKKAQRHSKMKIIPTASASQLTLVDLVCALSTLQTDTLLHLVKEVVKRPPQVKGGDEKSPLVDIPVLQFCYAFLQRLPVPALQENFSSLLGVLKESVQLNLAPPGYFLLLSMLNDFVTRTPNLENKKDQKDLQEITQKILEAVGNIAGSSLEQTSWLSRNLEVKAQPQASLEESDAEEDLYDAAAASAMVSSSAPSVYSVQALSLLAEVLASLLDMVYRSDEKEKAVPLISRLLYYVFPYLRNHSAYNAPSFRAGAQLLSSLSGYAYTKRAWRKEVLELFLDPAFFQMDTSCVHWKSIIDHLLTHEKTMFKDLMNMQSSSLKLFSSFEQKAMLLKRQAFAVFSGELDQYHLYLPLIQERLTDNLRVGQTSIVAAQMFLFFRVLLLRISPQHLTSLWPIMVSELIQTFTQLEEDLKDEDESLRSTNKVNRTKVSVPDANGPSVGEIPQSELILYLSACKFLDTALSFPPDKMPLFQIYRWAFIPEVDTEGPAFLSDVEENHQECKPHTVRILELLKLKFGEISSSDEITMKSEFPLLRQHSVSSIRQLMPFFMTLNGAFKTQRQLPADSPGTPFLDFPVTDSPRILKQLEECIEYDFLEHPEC

What was measured:
Experiment in all cases: log2 fold change, soluble protein after heating vs DMSO (PISA); higher = thermal stabilisation; K562 lysate, 10 uM; active = over 0.2 and 3.5 SD of the protein, either way, in both replicates (recomputed)
[1] = compound: CS(=O)(=O)CCNCc1ccc(-c2ccc3ncnc(Nc4ccc(OCc5cccc(F)c5)c(Cl)c4)c3c2)o1 [lapatinib]
Outline: (§1)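 Pellets of K562 cells were dounce-homogenised in PBS pH 7.4 with 1 mM MgCl2, and the crude extract was held at 1 mg/mL protein for a 30 min treatment with 10 μM compound. Aliquots were heated for 3 min over 48°C-58°C and pooled before NP-40 was added to 0.5% at 4°C. The supernatant from 21,000xg for 90 min was quantified by TMTpro 16plex LC-MS/MS with channel sums equalised. Values are reported from duplicates as log-two fold change in thermal stability relative to solvent controls.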

[2] = compound: CS(=O)(=O)N1CCN(Cc2cc3nc(-c4cccc5[nH]ncc45)nc(N4CCOCC4)c3s2)CC1 [pictilisib]
Outline: as §1

[3] = compound: C[C@@H](Oc1cc(-c2cnn(C3CCNCC3)c2)cnc1N)c1c(Cl)ccc(F)c1Cl [crizotinib]
Outline: as §1

[4] = compound: C[C@H](C1=CC=C(C=C1)C(=O)NC2=C3C=CNC3=NC=C2)N
Outline: as §1

[5] = compound: C[C@H](Nc1ncnc2nc[nH]c12)c1cc2cccc(Cl)c2c(=O)n1-c1ccccc1 [duvelisib]
Outline: as §1

[6] = compound: Cc1cc(Nc2cc(CN3CCOCC3)c3nc(C)c(Cc4ccc(Cl)cc4F)n3n2)n[nH]1 [gandotinib]
Outline: as §1

[7] = compound: Cc1cc(Nc2cc(N3CCN(C)CC3)nc(Sc3ccc(NC(=O)C4CC4)cc3)n2)n[nH]1 [tozasertib]
Outline: as §1

[8] = compound: Cc1ccc(-n2nc(C(C)(C)C)cc2NC(=O)Nc2ccc(OCCN3CCOCC3)c3ccccc23)cc1 [doramapimod]
Outline: as §1

[9] = compound: Cc1ccc(NC(=O)c2ccc(CN3CC[C@H](N(C)C)C3)c(C(F)(F)F)c2)cc1Nc1nccc(-c2cncnc2)n1 [bafetinib]
Outline: as §1

[10] = compound: Cc1cccc(CC(=O)N2CCc3c2ccc(-c2cn(C)c4ncnc(N)c24)c3F)n1
Outline: as §1

[11] = compound: Cc1cn(-c2cc(NC(=O)c3ccc(C)c(Nc4nccc(-c5cccnc5)n4)c3)cc(C(F)(F)F)c2)cn1 [nilotinib]
Outline: as §1

[12] = compound: Cc1nc(Nc2n[nH]c3c2CN(C(=O)N[C@H](CN(C)C)c2ccccc2)C3(C)C)c2sccc2n1
Outline: as §1

[13] = compound: Cc1nc(Nc2ncc(C(=O)Nc3c(C)cccc3Cl)s2)cc(N2CCN(CCO)CC2)n1 [dasatinib]
Outline: as §1

[14] = compound: Cc1ncc(-c2ccnc(Nc3ccc(S(C)(=O)=O)cc3)n2)n1C(C)C
Outline: as §1

[15] = compound: Cn1cc(-c2ccc3c(c2)CCN3C(=O)Cc2cccc(C(F)(F)F)c2)c2c(N)ncnc21
Outline: as §1

[16] = compound: Cn1cc(CNCC2CCN(c3ncc(C(=O)NO)cn3)CC2)c2ccccc21 [quisinostat]
Outline: as §1

[17] = compound: Cn1cncc1[C@@](N)(c1ccc(Cl)cc1)c1ccc2c(c1)c(-c1cccc(Cl)c1)cc(=O)n2C [tipifarnib]
Outline: as §1

[18] = compound: NC(=O)Nc1cc(-c2cccc(F)c2)sc1C(=O)N[C@H]1CCCNC1
Outline: as §1

[19] = compound: NC(=O)c1cnc(N[C@@H]2CCCC[C@@H]2N)nc1Nc1cccc(-n2nccn2)c1
Outline: as §1

[20] = compound: NC1(c2ccc(-c3nc4ccn5c(=O)[nH]nc5c4cc3-c3ccccc3)cc2)CCC1
Outline: as §1

## DLGAP5 (UniProt Q15398)
[1]
  log2 fold change: inactive: 0.02
[2]
  log2 fold change: inactive: 0
[3]
  log2 fold change: inactive: -0.016
[4]
  log2 fold change: inactive: -0.029
[5]
  log2 fold change: inactive: -0.005
[6]
  log2 fold change: inactive: 0.049
[7]
  log2 fold change: inactive: -0.014
[8]
  log2 fold change: inactive: 0.001
[9]
  log2 fold change: inactive: -0.008
[10]
  log2 fold change: inactive: 0.04
[11]
  log2 fold change: inactive: -0.013
[12]
  log2 fold change: inactive: 0.029
[13]
  log2 fold change: inactive: -0.036
[14]
  log2 fold change: inactive: 0
[15]
  log2 fold change: inactive: 0.001
[16]
  log2 fold change: inactive: -0.033
[17]
  log2 fold change: inactive: 0.001
[18]
  log2 fold change: inactive: 0.011
[19]
  log2 fold change: inactive: 0.006
[20]
  log2 fold change: inactive: 0.007

## DNAJC13 (UniProt O75165)
[1]
  log2 fold change: inactive: 0.001
[2]
  log2 fold change: inactive: -0.023
[3]
  log2 fold change: inactive: -0.054
[4]
  log2 fold change: inactive: -0.067
[5]
  log2 fold change: inactive: 0.005
[6]
  log2 fold change: inactive: 0.007
[7]
  log2 fold change: inactive: 0.036
[8]
  log2 fold change: inactive: 0.005
[9]
  log2 fold change: inactive: -0.057
[10]
  log2 fold change: inactive: 0.068
[11]
  log2 fold change: inactive: -0.008
[12]
  log2 fold change: inactive: 0.004
[13]
  log2 fold change: inactive: -0.012
[14]
  log2 fold change: inactive: 0.027
[15]
  log2 fold change: inactive: 0.007
[16]
  log2 fold change: inactive: -0.047
[17]
  log2 fold change: inactive: 0.021
[18]
  log2 fold change: inactive: 0.007
[19]
  log2 fold change: inactive: -0.004
[20]
  log2 fold change: inactive: -0.004

## DHX9 (UniProt Q08211)
[1]
  log2 fold change: inactive: -0.009
[2]
  log2 fold change: inactive: 0
[3]
  log2 fold change: inactive: -0.033
[4]
  log2 fold change: inactive: 0.031
[5]
  log2 fold change: inactive: 0.023
[6]
  log2 fold change: inactive: -0.046
[7]
  log2 fold change: inactive: -0.028
[8]
  log2 fold change: inactive: 0.015
[9]
  log2 fold change: inactive: -0.023
[10]
  log2 fold change: inactive: 0.005
[11]
  log2 fold change: inactive: -0.015
[12]
  log2 fold change: inactive: 0.014
[13]
  log2 fold change: inactive: 0.008
[14]
  log2 fold change: inactive: -0.014
[15]
  log2 fold change: inactive: 0.02
[16]
  log2 fold change: inactive: -0.057
[17]
  log2 fold change: inactive: 0.01
[18]
  log2 fold change: inactive: 0.017
[19]
  log2 fold change: inactive: -0.005
[20]
  log2 fold change: inactive: -0.025

## DNAJC1 (UniProt Q96KC8)
[1]
  log2 fold change: inactive: -0.057
[2]
  log2 fold change: inactive: 0.013
[3]
  log2 fold change: inactive: -0.086
[4]
  log2 fold change: inactive: 0.033
[5]
  log2 fold change: inactive: -0.046
[6]
  log2 fold change: active: -0.262
[7]
  log2 fold change: inactive: 0.019
[8]
  log2 fold change: inactive: -0.117
[9]
  log2 fold change: inactive: 0.001
[10]
  log2 fold change: inactive: -0.064
[11]
  log2 fold change: inactive: -0.03
[12]
  log2 fold change: inactive: 0
[13]
  log2 fold change: inactive: -0.09
[14]
  log2 fold change: inactive: -0.012
[15]
  log2 fold change: inactive: 0.016
[16]
  log2 fold change: inactive: 0.04
[17]
  log2 fold change: inactive: 0.004
[18]
  log2 fold change: inactive: 0.026
[19]
  log2 fold change: inactive: -0.028
[20]
  log2 fold change: inactive: 0.028

## DMXL1 (UniProt Q9Y485)
[1]
  log2 fold change: inactive: -0.003
[2]
  log2 fold change: inactive: -0.014
[3]
  log2 fold change: inactive: -0.021
[4]
  log2 fold change: inactive: 0.001
[5]
  log2 fold change: inactive: 0.007
[6]
  log2 fold change: inactive: -0.028
[7]
  log2 fold change: inactive: 0.002
[8]
  log2 fold change: inactive: 0.039
[9]
  log2 fold change: inactive: -0.01
[10]
  log2 fold change: inactive: 0.026
[11]
  log2 fold change: inactive: 0.03
[12]
  log2 fold change: inactive: 0.006
[13]
  log2 fold change: inactive: -0.017
[14]
  log2 fold change: inactive: -0.005
[15]
  log2 fold change: inactive: 0.025
[16]
  log2 fold change: inactive: -0.009
[17]
  log2 fold change: inactive: -0.015
[18]
  log2 fold change: inactive: 0.01
[19]
  log2 fold change: inactive: 0.014
[20]
  log2 fold change: inactive: 0.034

## DMAC2L (UniProt Q99766)
[1]
  log2 fold change: inactive: -0.021
[2]
  log2 fold change: inactive: -0.036
[3]
  log2 fold change: inactive: 0.012
[4]
  log2 fold change: inactive: -0.048
[5]
  log2 fold change: inactive: -0.037
[6]
  log2 fold change: inactive: 0.047
[7]
  log2 fold change: inactive: 0.087
[8]
  log2 fold change: inactive: 0.002
[9]
  log2 fold change: inactive: 0.009
[10]
  log2 fold change: inactive: 0.1
[11]
  log2 fold change: inactive: -0.021
[12]
  log2 fold change: inactive: 0.001
[13]
  log2 fold change: inactive: 0.059
[14]
  log2 fold change: inactive: -0.04
[15]
  log2 fold change: inactive: -0.009
[16]
  log2 fold change: inactive: 0.012
[17]
  log2 fold change: inactive: -0.017
[18]
  log2 fold change: inactive: -0.032
[19]
  log2 fold change: inactive: -0.006
[20]
  log2 fold change: inactive: 0.111

## DNASE1L1 (UniProt P49184)
[1]
  log2 fold change: inactive: -0.156
[4]
  log2 fold change: inactive: -0.042
[6]
  log2 fold change: inactive: -0.047
[10]
  log2 fold change: inactive: 0.079
[11]
  log2 fold change: inactive: 0.308
[12]
  log2 fold change: inactive: -0.299
[14]
  log2 fold change: inactive: -0.362
[17]
  log2 fold change: inactive: -0.221
[19]
  log2 fold change: inactive: -0.275

## DNM2 isoform 4 (UniProt P50570)
[1]
  log2 fold change: inactive: 0.031
[3]
  log2 fold change: inactive: 0.014
[4]
  log2 fold change: inactive: -0.16
[5]
  log2 fold change: inactive: 0.015
[6]
  log2 fold change: inactive: -0.134
[7]
  log2 fold change: inactive: -0.084
[8]
  log2 fold change: inactive: 0.066
[10]
  log2 fold change: inactive: 0.16
[11]
  log2 fold change: inactive: 0.078
[12]
  log2 fold change: inactive: -0.018
[13]
  log2 fold change: inactive: -0.095
[14]
  log2 fold change: inactive: -0.03
[15]
  log2 fold change: inactive: 0.162
[16]
  log2 fold change: inactive: 0.025
[17]
  log2 fold change: inactive: -0.12
[18]
  log2 fold change: inactive: 0.088
[19]
  log2 fold change: inactive: 0.044
[20]
  log2 fold change: inactive: -0.181

## DNAJB9 (UniProt Q9UBS3)
[1]
  log2 fold change: inactive: 0.013
[3]
  log2 fold change: inactive: -0.032
[5]
  log2 fold change: inactive: -0.018
[8]
  log2 fold change: inactive: 0.121
[13]
  log2 fold change: inactive: -0.173
[15]
  log2 fold change: inactive: 0.097
[16]
  log2 fold change: inactive: 0.04
[18]
  log2 fold change: inactive: 0.009
[19]
  log2 fold change: inactive: -0.093
[20]
  log2 fold change: inactive: -0.007

## DNLZ (UniProt Q5SXM8)
[1]
  log2 fold change: inactive: 0.152
[4]
  log2 fold change: inactive: 0.08
[6]
  log2 fold change: inactive: -0.069
[10]
  log2 fold change: inactive: 0.048
[11]
  log2 fold change: inactive: 0.123
[12]
  log2 fold change: inactive: -0.227
[14]
  log2 fold change: inactive: 0.235
[17]
  log2 fold change: inactive: -0.028
[19]
  log2 fold change: inactive: 0.074
[20]
  log2 fold change: inactive: 0.092

## DNTTIP1 (UniProt Q9H147)
[1]
  log2 fold change: inactive: 0.225
[4]
  log2 fold change: inactive: 0.012
[5]
  log2 fold change: inactive: 0.107
[6]
  log2 fold change: inactive: -0.2
[7]
  log2 fold change: inactive: -0.055
[10]
  log2 fold change: inactive: 0.022
[13]
  log2 fold change: inactive: -0.041
[15]
  log2 fold change: inactive: -0.032
[19]
  log2 fold change: inactive: 0.148
[20]
  log2 fold change: inactive: -0.077

## DNAJC10 (UniProt Q8IXB1)
[1]
  log2 fold change: inactive: -0.009
[2]
  log2 fold change: inactive: 0.001
[3]
  log2 fold change: inactive: 0.029
[4]
  log2 fold change: inactive: 0.019
[5]
  log2 fold change: inactive: 0.016
[6]
  log2 fold change: inactive: 0.035
[7]
  log2 fold change: inactive: 0.006
[8]
  log2 fold change: inactive: -0.025
[9]
  log2 fold change: inactive: -0.013
[10]
  log2 fold change: inactive: 0.026
[11]
  log2 fold change: inactive: 0.036
[12]
  log2 fold change: inactive: 0.009
[13]
  log2 fold change: inactive: 0.021
[14]
  log2 fold change: inactive: 0.005
[15]
  log2 fold change: inactive: -0.007
[16]
  log2 fold change: inactive: 0.021
[17]
  log2 fold change: inactive: 0.041
[18]
  log2 fold change: inactive: 0.012
[19]
  log2 fold change: inactive: -0.011
[20]
  log2 fold change: inactive: 0.016

## DOP1B (UniProt Q9Y3R5)
[1]
  log2 fold change: inactive: -0.067
[3]
  log2 fold change: inactive: -0.076
[4]
  log2 fold change: inactive: 0.038
[6]
  log2 fold change: inactive: 0.121
[8]
  log2 fold change: inactive: 0.15
[10]
  log2 fold change: inactive: -0.048
[16]
  log2 fold change: inactive: -0.346
[18]
  log2 fold change: inactive: -0.015
[19]
  log2 fold change: inactive: 0.032
